PubChem BioAssay AID1259254 – NCATS, 2017

Test: 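Genome-wide screen for genes that prevent DNA re-replication in cancer cells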 (primary screen)
Cells: human HCT116 colorectal cancer cells
Knock-down reagent: single siRNA against human genes
Time to read-out: 3 days
Read-out: 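Imaged Hoechst DNA stain sorts each cell into a cycle phase by DNA amount; per plate, G2 fraction set to 0% for non-targeting and 100% for GMNN siRNA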
Scale: G2 robust z-score and G2 cells, % of GMNN control: higher = more G2 cells, more excess DNA replication; raw share of cells in G2: higher = larger share of cells with G2 DNA content
Active means: 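Active siRNAs have a G2 robust z of 5 or more median absolute deviations over the median, which in these data means about 38% or higher of GMNN control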
The deposit covers about 59,000 reagents; shown is a random part of them. In the full data, about 1,550 (2.6%) were called active. 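G2 share is only a proxy for re-replication; each gene was hit by three separate siRNAs, and active genes were retested.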 The raw values are shown without normalisation. A number with no mark means an inactive call. Reagents against one gene are numbered here. Not stated in the record: the amount of reagent.

no.	gene	siRNA no.	G2 robust z-score	G2 cells, % of GMNN control	raw share of cells in G2 (%)
1	PDE7B	1	0.631	7.41	9.52
2	PDE7B	2	7.66 (active)	56.9	23.1
3	PDE7B	3	-0.645	-1.57	3.48
4	SLFN12	1	2.43	20.1	12.2
5	SLFN12	2	2.54	20.8	12.8
6	SLFN12	3	1.87	16.1	8.28
7	G6PC2	1	-0.555	-0.941	4.49
8	G6PC2	2	-0.455	-0.233	4.23
9	G6PC2	3	-0.291	0.918	3.77
10	ZNF70	1	-0.568	-1.03	5.53
11	ZNF70	2	1.24	11.7	8.24
12	ZNF70	3	-0.57	-1.05	3.18
13	BORCS8-MEF2B	1	-0.354	0.479	3.35
14	BORCS8-MEF2B	2	-1.04	-4.37	3.67
15	BORCS8-MEF2B	3	7.14 (active)	53.2	26.6
16	GSTM3	1	6.32 (active)	47.5	22.3
17	GSTM3	2	0.55	6.84	8.29
18	GSTM3	3	0.0522	3.33	5.42
19	CTRB1	1	-0.0896	2.34	5.73
20	CTRB1	2	-0.357	0.457	4.08
21	CTRB1	3	-1.04	-4.35	4.04
22	FBXO17	1	0.0677	3.44	5.47
23	FBXO17	2	0.658	7.59	5.59
24	FBXO17	3	0.457	6.18	3.63
25	IGLL1	1	0.861	9.03	8.81
26	IGLL1	2	0.246	4.7	6.08
27	IGLL1	3	0.155	4.06	4.82
28	PLPBP	1	-0.275	1.03	3.87
29	PLPBP	2	-1.08	-4.61	3.93
30	PLPBP	3	1.28	12	8.35

Entries above whose target name starts with I or i (3):
gene	siRNA no.	G2 robust z-score	G2 cells, % of GMNN control	raw share of cells in G2 (%)
IGLL1	1	0.861	9.03	8.81
IGLL1	2	0.246	4.7	6.08
IGLL1	3	0.155	4.06	4.82

The list goes on.
no.	gene	siRNA no.	G2 robust z-score	G2 cells, % of GMNN control	raw share of cells in G2 (%)
31	DCBLD1	1	-0.167	1.79	4.29
32	DCBLD1	2	-0.483	-0.431	2.88
33	DCBLD1	3	-0.399	0.161	3.32
34	PUM3	1	-0.358	0.446	5.53
35	PUM3	2	0.793	8.55	7.51
36	PUM3	3	-0.726	-2.14	2.62
37	MAGOHB	1	0.802	8.61	7.83
38	MAGOHB	2	-0.241	1.27	4.67
39	MAGOHB	3	1.28	12	6.96
40	ST3GAL1	1	1.85	16	9.25
41	ST3GAL1	2	-0.762	-2.39	3.73
42	ST3GAL1	3	0.273	4.89	7.33
43	CTCFL	1	1.73	15.1	8.3
44	CTCFL	2	-0.494	-0.506	2.99
45	CTCFL	3	2.37	19.6	10.4
46	TAF3	1	4.16	32.3	14.8
47	TAF3	2	-0.468	-0.328	3.36
48	TAF3	3	0.543	6.79	4.46
49	ELP1	1	-1.22	-5.61	2.7
50	ELP1	2	-0.728	-2.15	4.51
51	ELP1	3	-0.945	-3.68	2.86
52	VTI1A	1	-0.429	-0.049	3.05
53	VTI1A	2	-0.752	-2.32	3.05
54	VTI1A	3	-0.00192	2.95	3.83
55	HOOK2	1	-0.417	0.0333	2.8
56	HOOK2	2	0.253	4.75	8.06
57	HOOK2	3	0.061	3.4	4.7
58	TLR4	1	-0.182	1.69	5.04
59	TLR4	2	0.195	4.34	6.87
60	TLR4	3	2.3	19.1	11.2
61	CTSO	1	2.19	18.4	12
62	CTSO	2	-0.73	-2.17	4.14
63	CTSO	3	-0.569	-1.03	3.52
64	SPHK1	1	-1.91	-10.5	2.33
65	SPHK1	2	-0.848	-3	4.1
66	SPHK1	3	-0.875	-3.19	2.66
67	MTARC1	1	0.283	4.96	6.74
68	MTARC1	2	-0.405	0.119	4.66
69	MTARC1	3	0.355	5.46	4.14
